Data taken from PMC7819943, “Rice protein-binding microarrays: a tool to detect cis-acting elements near promoter regions in rice”.
This is one part of the list.

Molecular target: T1, OsSMF1 (Oryza sativa, UniProt Q6ZLB0 1-436)
T1 sequence: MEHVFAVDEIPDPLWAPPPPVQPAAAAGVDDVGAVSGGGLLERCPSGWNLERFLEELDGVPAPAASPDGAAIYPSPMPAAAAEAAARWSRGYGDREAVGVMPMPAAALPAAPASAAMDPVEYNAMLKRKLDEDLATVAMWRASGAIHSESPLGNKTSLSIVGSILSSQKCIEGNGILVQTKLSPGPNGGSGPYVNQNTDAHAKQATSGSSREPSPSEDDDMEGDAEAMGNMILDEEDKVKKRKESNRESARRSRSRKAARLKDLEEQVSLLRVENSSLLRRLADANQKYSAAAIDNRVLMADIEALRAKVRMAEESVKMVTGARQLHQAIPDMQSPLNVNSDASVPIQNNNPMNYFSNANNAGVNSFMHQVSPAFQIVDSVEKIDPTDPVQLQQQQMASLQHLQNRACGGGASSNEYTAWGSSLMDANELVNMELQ
Experiment: protein-binding microarray (RPBM); PBS, 2% BSA, 51.3 ng/ul salmon testes DNA, 50 uM zinc acetate, 200 nM TF, 25 C, 1 h; high values mean tight binding
Conditions: protein: recombinant; tags: N-terminal polyhistidine and DsRed monomer fusion (pET32a); chain copies: 2; label: CyDye5-dUTP incorporated in the synthesized complementary strand; 3' TTTTT single-stranded linker to array surface; dsDNA, one strand shown
Procedure, shortened: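 An Axon 4000B scanner gave the binding signal as per-feature fluorescence intensity in arbitrary units. This followed washing of a custom Agilent array that had been incubated for 1 h at 25 °C with 200 nM protein in PBS, 2% BSA, salmon testes DNA and 50 µM zinc acetate. The proteins were transcription factors fused at the N-terminus to polyhistidine and DsRed, expressed in E. coli BL21-CodonPlus and purified on Ni–NTA.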

Sequence | binding signal
TTACAGCTCACACTGACGCCTGGGCCCCACTAGTCAGTCTCGGAGTCACCTAGTGCAG | 3220 fluorescence intensity (a.u.)
TCTAGTCTAGTATTCCACGCGGCAAAGCAACGTGTACTTTCGGAGTCACCTAGTGCAG | 5620 fluorescence intensity (a.u.)
ATAGAGTGTACTTTCGTATGTCATACTTGAAATTTGCCAGCGGAGTCACCTAGTGCAG | 3670 fluorescence intensity (a.u.)
TAGTGCTGTGCTGGCTAGTCATTTTATAAGTTCATAGGTCCGGAGTCACCTAGTGCAG | 5440 fluorescence intensity (a.u.)
TTTGGGAAGAAATGGTGATGGTGGTTTCGTTGGTGTTGTGCGGAGTCACCTAGTGCAG | 3310 fluorescence intensity (a.u.)
AGAAAGGATCTGACTAGGTGGGCCCAATGACGACGTGGGGCGGAGTCACCTAGTGCAG | 6770 fluorescence intensity (a.u.)
GGCTTCAACGGTGTTCAATATCTTAGGTGATGTCCTTTTGCGGAGTCACCTAGTGCAG | 3340 fluorescence intensity (a.u.)
GGGATCTGAAGTGAACTTATTTCATAAATAAAATGGGCTGCGGAGTCACCTAGTGCAG | 3220 fluorescence intensity (a.u.)
CAGTCAAGTGTGATCTGGATTCCTCGTCCCGTGGAGCCTTCGGAGTCACCTAGTGCAG | 3910 fluorescence intensity (a.u.)
GTCCTCCCTTTCCCACTCCACCTATGACGACCACCGTCGGCGGAGTCACCTAGTGCAG | 10800 fluorescence intensity (a.u.)
CGCGTCTCTCCTCTCCCCGCTTGCACTGCAGCTCACGCGTCGGAGTCACCTAGTGCAG | 3150 fluorescence intensity (a.u.)
CTACAAAATGTAATTGCTAGTTATGACTCAGACGCTACCTCGGAGTCACCTAGTGCAG | 10500 fluorescence intensity (a.u.)
TACCTGATAACACACGTGTGGTGGCTTAGCTAGCTTCCTTCGGAGTCACCTAGTGCAG | 5280 fluorescence intensity (a.u.)
TATGTGATTTACATGAGTCATTACGGTGTGCAGATGCCAACGGAGTCACCTAGTGCAG | 5040 fluorescence intensity (a.u.)
ACCAAATGAAATACAGAGCTCAGCAACTTGTAGCATTGGTCGGAGTCACCTAGTGCAG | 24800 fluorescence intensity (a.u.)
TTCGCCGTCGTCCTGCTGCTTCCGCCGCATCCATCCCGGTCGGAGTCACCTAGTGCAG | 6990 fluorescence intensity (a.u.)
GCGGCGCGACAGCGACAAAGCGCACGCGCGCGGCGAGCTGCGGAGTCACCTAGTGCAG | 30800 fluorescence intensity (a.u.)
AAGTCGTTCACTCGGCAACGTGTCATCCGGATAGACGTTGCGGAGTCACCTAGTGCAG | 6700 fluorescence intensity (a.u.)
CTATGTTAATCTTAAGCGGGACGGGACATACGTGGAATCTCGGAGTCACCTAGTGCAG | 5260 fluorescence intensity (a.u.)
TTACTCACGTTGGCGTGGTGGACCACGTCCACCGACCCGCCGGAGTCACCTAGTGCAG | 4090 fluorescence intensity (a.u.)
CAGCTTTTCTAGCATGCCACGCCACCAAATTTACAATCAGCGGAGTCACCTAGTGCAG | 3160 fluorescence intensity (a.u.)
CTGTGATGTGCGAGTCATCACGTGCATAGCAAAATGGGAACGGAGTCACCTAGTGCAG | 4550 fluorescence intensity (a.u.)
TCTTTCTCAAAATAATTTGTCTGGAACAATCCCTAGATTCCGGAGTCACCTAGTGCAG | 21700 fluorescence intensity (a.u.)
GGTACATACCACAGATAGCGACAACACCAACTCATACTATCGGAGTCACCTAGTGCAG | 3190 fluorescence intensity (a.u.)
GTTGGTGTGCACGTGAGTACACGTGAGGGCCTATGTGCATCGGAGTCACCTAGTGCAG | 3180 fluorescence intensity (a.u.)
CTTCTCACACGTCGTCAAAGCCTCTGACTTTGGATATCCCCGGAGTCACCTAGTGCAG | 4680 fluorescence intensity (a.u.)
CGTGTCCATCCTCCACCACGTCACGCTGGGCGGGACCGGCCGGAGTCACCTAGTGCAG | 13200 fluorescence intensity (a.u.)

Sequence | binding signal
CATATTCATATTGATGTTAATGAATCTAGACATTATTAACCGGAGTCACCTAGTGCAG | 34600 fluorescence intensity (a.u.)
ATGATGTGATGGCGCCCGGTGGACAGCTTCTCCAGTCGGCCGGAGTCACCTAGTGCAG | 22600 fluorescence intensity (a.u.)
GAACTCCGAAAATCGTAAGCCCAGGACGTGTCGGCACGGGCGGAGTCACCTAGTGCAG | 4540 fluorescence intensity (a.u.)
TTCGTTTACCTTCTCCGACTCCTGACGCGGCCTCAACAAGCGGAGTCACCTAGTGCAG | 4940 fluorescence intensity (a.u.)
ATCTCGCTCGGTTTCGCCGACCCTGACGGGGAACCAACCACGGAGTCACCTAGTGCAG | 3600 fluorescence intensity (a.u.)
GCTGCTCTCTTTCCTCTCTTCTCTCTCTGTTTTCTCTCCTCGGAGTCACCTAGTGCAG | 18500 fluorescence intensity (a.u.)
ATTTATTGAGGTATTGAATGAGGATTCTAGGAGGAACTAGCGGAGTCACCTAGTGCAG | 22700 fluorescence intensity (a.u.)
CCATGGCGGTGACGCTGCTGCTCCGGCGGTCAAAGGCTCTCGGAGTCACCTAGTGCAG | 21100 fluorescence intensity (a.u.)
AAACAGTAGCTTCCTACTCAGATTAATCAGGAGAAGCATTCGGAGTCACCTAGTGCAG | 3170 fluorescence intensity (a.u.)
CGTGAAATAGCGCATTTAAAATTTGAGTTACGACATGTTCCGGAGTCACCTAGTGCAG | 17200 fluorescence intensity (a.u.)
AGTTATGGACCATCCGGAATCTGACGAGGAGTTCGTCCAGCGGAGTCACCTAGTGCAG | 4860 fluorescence intensity (a.u.)
CGAGGAGGAGGCGTAGCAGCCGCCGCGTTGGCAAGCGCCACGGAGTCACCTAGTGCAG | 4060 fluorescence intensity (a.u.)
ATATTAGTGGCCAGGTCATTTGCATCGACGGTGGCCACACCGGAGTCACCTAGTGCAG | 4470 fluorescence intensity (a.u.)
GCAATCCTTGCACGCGGCGGCGCACTTCTTCACCTTGTCGCGGAGTCACCTAGTGCAG | 4080 fluorescence intensity (a.u.)
GGGCAGCTTCTCGCTGCGGCAGCCGCCGGTGGTGGACATCCGGAGTCACCTAGTGCAG | 3800 fluorescence intensity (a.u.)
CACGGTTCACCATCCACGCGCATGACTCGTTCCACGAGCCCGGAGTCACCTAGTGCAG | 5130 fluorescence intensity (a.u.)
GGGGACAATAGAGATGACGCCAATTCATTGATGCCATGAACGGAGTCACCTAGTGCAG | 3250 fluorescence intensity (a.u.)
GCGCGAGAATAACGTGGGCGTGACGACGTGGACGGGTCTCCGGAGTCACCTAGTGCAG | 9490 fluorescence intensity (a.u.)
ACCTCCCCGACGGCGTCCGCGTGCCGCGCTCCACGCGCACCGGAGTCACCTAGTGCAG | 3460 fluorescence intensity (a.u.)
AGACGTGTCAGCAAAAGTTCGCTTGTTTATCACCTGACGACGGAGTCACCTAGTGCAG | 3780 fluorescence intensity (a.u.)
GTATACTGTACTCTAACATACGTGTGTACAAACATGTCAGCGGAGTCACCTAGTGCAG | 4460 fluorescence intensity (a.u.)
ATTCGGACTGAAAATAAAAGTAGTTTCAGGTCACTCACATCGGAGTCACCTAGTGCAG | 7120 fluorescence intensity (a.u.)
GGACGCATAATCTCGTCGGTGTGCGTCAGTCATTCCAGTGCGGAGTCACCTAGTGCAG | 4470 fluorescence intensity (a.u.)
ATCCACAAAAGATCCCCACACCTGATCACACCCAGTTTAACGGAGTCACCTAGTGCAG | 3180 fluorescence intensity (a.u.)
TATATGTTCGTTGCAGCTTACTCATAATAATCCAGATTATCGGAGTCACCTAGTGCAG | 3440 fluorescence intensity (a.u.)
TCAGCGATGACGAACAACAAGCGGGTTGACGGCTGTATCGCGGAGTCACCTAGTGCAG | 29400 fluorescence intensity (a.u.)
TGGAGGAAGTCAGTAGGATCCCACGTGTCATACTCACACCCGGAGTCACCTAGTGCAG | 22200 fluorescence intensity (a.u.)

Some of the entries so far, as tab-separated lines.
Sequence	binding signal
AAACAGTAGCTTCCTACTCAGATTAATCAGGAGAAGCATTCGGAGTCACCTAGTGCAG	3170 fluorescence intensity (a.u.)
CGTGAAATAGCGCATTTAAAATTTGAGTTACGACATGTTCCGGAGTCACCTAGTGCAG	17200 fluorescence intensity (a.u.)
AGTTATGGACCATCCGGAATCTGACGAGGAGTTCGTCCAGCGGAGTCACCTAGTGCAG	4860 fluorescence intensity (a.u.)
CGAGGAGGAGGCGTAGCAGCCGCCGCGTTGGCAAGCGCCACGGAGTCACCTAGTGCAG	4060 fluorescence intensity (a.u.)
ATATTAGTGGCCAGGTCATTTGCATCGACGGTGGCCACACCGGAGTCACCTAGTGCAG	4470 fluorescence intensity (a.u.)
GCAATCCTTGCACGCGGCGGCGCACTTCTTCACCTTGTCGCGGAGTCACCTAGTGCAG	4080 fluorescence intensity (a.u.)
GGGCAGCTTCTCGCTGCGGCAGCCGCCGGTGGTGGACATCCGGAGTCACCTAGTGCAG	3800 fluorescence intensity (a.u.)
CACGGTTCACCATCCACGCGCATGACTCGTTCCACGAGCCCGGAGTCACCTAGTGCAG	5130 fluorescence intensity (a.u.)
GGGGACAATAGAGATGACGCCAATTCATTGATGCCATGAACGGAGTCACCTAGTGCAG	3250 fluorescence intensity (a.u.)
GCGCGAGAATAACGTGGGCGTGACGACGTGGACGGGTCTCCGGAGTCACCTAGTGCAG	9490 fluorescence intensity (a.u.)
ACCTCCCCGACGGCGTCCGCGTGCCGCGCTCCACGCGCACCGGAGTCACCTAGTGCAG	3460 fluorescence intensity (a.u.)
AGACGTGTCAGCAAAAGTTCGCTTGTTTATCACCTGACGACGGAGTCACCTAGTGCAG	3780 fluorescence intensity (a.u.)
